These results are taken from paper PMC7819943, “Rice protein-binding microarrays: a tool to detect cis-acting elements near promoter regions in rice”.

Sequences of proteins named here, by UniProt entry; tags and fusion partners are left off.
UniProt Q0JBA9, entry or part of it: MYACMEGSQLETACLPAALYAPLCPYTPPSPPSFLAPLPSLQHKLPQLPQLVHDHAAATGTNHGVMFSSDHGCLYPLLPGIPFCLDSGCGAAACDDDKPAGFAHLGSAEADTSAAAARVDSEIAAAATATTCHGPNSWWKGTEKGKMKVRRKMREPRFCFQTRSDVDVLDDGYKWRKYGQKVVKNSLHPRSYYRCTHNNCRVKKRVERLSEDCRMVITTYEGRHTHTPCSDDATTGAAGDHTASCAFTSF

This is one part of the list.

This assay concerns the target OsWRKY34 (Oryza sativa, UniProt Q0JBA9 1-250). Kind of assay: protein-binding microarray (RPBM); PBS, 2% BSA, 51.3 ng/ul salmon testes DNA, 50 uM zinc acetate, 200 nM TF, 25 C, 1 h; high values mean tight binding. The note with it: protein: recombinant; tags: N-terminal polyhistidine and DsRed monomer fusion (pET32a); label: CyDye5-dUTP incorporated in the synthesized complementary strand; 3' TTTTT single-stranded linker to array surface; dsDNA, one strand shown. In outline: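 For the binding signal, per-feature fluorescence intensity was read in arbitrary units on an Axon 4000B scanner. Before scanning, a 2% BSA-blocked custom Agilent array made double-stranded with Cy5-dUTP was washed after 1 h at 25 °C with 200 nM protein and 50 µM zinc acetate. The proteins were Ni–NTA-purified transcription factors with N-terminal polyhistidine and DsRed fusions, expressed in E. coli BL21-CodonPlus.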
With “TTGGTTTCGATCTGGTCGCATCGCACCGCCTCGCCCTACACGGAGTCACCTAGTGCAG”, the binding signal is 8480 fluorescence intensity (a.u.).

For “GGGTGTCACATCAGACGGTTGACCAGATATCGGAAGGGGTCGGAGTCACCTAGTGCAG”, the binding signal was 11300 fluorescence intensity (a.u.).

“CTGAAAATTTTGTTCTAAACCACTACTAGTCGTCTACTACCGGAGTCACCTAGTGCAG”: the binding signal is 8350 fluorescence intensity (a.u.).

With “AGCCTACCACCCGCCCTTTTCCAGGCCATGTTCGTTACTTCGGAGTCACCTAGTGCAG”, the binding signal was 8410 fluorescence intensity (a.u.).

On to “TTGCAACTTTTAGTTCCTAACTTTTTCTTCAAACTTCCAACGGAGTCACCTAGTGCAG”, for which the binding signal is 8060 fluorescence intensity (a.u.).

In the case of “ATTCGCTGGTCTGGACGCCGCCTCCGCCGCCGCCGCCATGCGGAGTCACCTAGTGCAG”, the binding signal was 9120 fluorescence intensity (a.u.).

For the sequence “ATACACCGATTAATGATGGACATCATAGTCTCACTTTTCACGGAGTCACCTAGTGCAG”, the binding signal is 9010 fluorescence intensity (a.u.).

Consider “CCCCATCGCTCGATTCCTTTCCATCCCTCGCCTCCGCGCGCGGAGTCACCTAGTGCAG”, for which the binding signal was 10400 fluorescence intensity (a.u.).

On to “GGCGGCTCGTCGGCGGCGGCGGCGGCGGAGGAGGAGGAGGCGGAGTCACCTAGTGCAG”, for which the binding signal is 9150 fluorescence intensity (a.u.).

Regarding “CTTGCCTCGTTGTCACTCACCAACTCTCTTTCTTCTCCATCGGAGTCACCTAGTGCAG”, the binding signal was 9300 fluorescence intensity (a.u.).

“CGTTTTTCATATTGCTTTTAGTTTTCTCTTAGTTTGTCCACGGAGTCACCTAGTGCAG”: the binding signal was 8840 fluorescence intensity (a.u.).

As to “CTAATCTGGACCGTCCATCCGCACGCAAGTTTTCTCCACCCGGAGTCACCTAGTGCAG”, the binding signal was 8090 fluorescence intensity (a.u.).

For the sequence “GATGTTCTTGCCTGATATTCTTAATTGTTAGCATATCACACGGAGTCACCTAGTGCAG”, the binding signal was 9020 fluorescence intensity (a.u.).

For the sequence “CTCACCGTGTTCTCTGAGTTTATAAGGGGCAATTTTATCTCGGAGTCACCTAGTGCAG”, the binding signal is 8940 fluorescence intensity (a.u.).

For the sequence “GACTTCGCTTCTTTTGTCTCCTCCTCGACGAATTGTCTCCCGGAGTCACCTAGTGCAG”, the binding signal is 9240 fluorescence intensity (a.u.).

With “ATTTTTTTTCCCTAATTTTCGGTTTTCATTTTAACTATACCGGAGTCACCTAGTGCAG”, the binding signal was 8520 fluorescence intensity (a.u.).

On to “TCCCACGATCCTTTTTCTCCTTTCTTTTCTCTCCTTCTCTCGGAGTCACCTAGTGCAG”, for which the binding signal is 10400 fluorescence intensity (a.u.).

With “CTAATCTGTTTTGTTTTCTGTGCATGGGATCAGTTCCCAACGGAGTCACCTAGTGCAG”, the binding signal is 11800 fluorescence intensity (a.u.).

For the sequence “TACCTCTTCAGTACAGCTGCAGCTGCTGACTGCTCACTACCGGAGTCACCTAGTGCAG”, the binding signal was 9480 fluorescence intensity (a.u.).

As to “TAAAGACCTCACACACGTTGCAACGTACTACGAGCTTTTCCGGAGTCACCTAGTGCAG”, the binding signal was 8950 fluorescence intensity (a.u.).

In the case of “AGTCATAATAACTTCTTGCGCCAAAAGGCTTCTCAATTGTCGGAGTCACCTAGTGCAG”, the binding signal is 8070 fluorescence intensity (a.u.).

Turning to “TCAGTTACCTTCTCTCTTATTGCTACTGATGGTGCATATGCGGAGTCACCTAGTGCAG”, the binding signal is 8180 fluorescence intensity (a.u.).

For “ATCCAGGCATTCACCAGCATATGTCAAGCAACTCGCAATTCGGAGTCACCTAGTGCAG”, the binding signal is 10600 fluorescence intensity (a.u.).

In the case of “TTCCACGGTTTTCTTTTTTCGGTTTTTATCTTTTCTTTTTCGGAGTCACCTAGTGCAG”, the binding signal is 13200 fluorescence intensity (a.u.).

Consider “CTGTTGTCTGATGATCTGTGGTGGAGTGGTTATGGTGTGTCGGAGTCACCTAGTGCAG”, for which the binding signal is 10000 fluorescence intensity (a.u.).

Consider “GTGCCTTTACCTGCATTTGGTGTGTTGCTGGTTAATTATGCGGAGTCACCTAGTGCAG”, for which the binding signal is 9530 fluorescence intensity (a.u.).

On to “GCGAGACAAATCTTTTAACCCTAATTGCCTCATGATTTGACGGAGTCACCTAGTGCAG”, for which the binding signal is 9280 fluorescence intensity (a.u.).

On to “TTGGACTGCTTTGATCTGCAGATCGGTGGACATTTTTCTACGGAGTCACCTAGTGCAG”, for which the binding signal was 9250 fluorescence intensity (a.u.).

Regarding “GTGGGTTGGTTGGGCCTGTTCAACGTGGTGTAGCGTTGATCGGAGTCACCTAGTGCAG”, the binding signal was 9370 fluorescence intensity (a.u.).

Regarding “TCGAATGCGCTGAATTCACATGTACACAACACCGTATACTCGGAGTCACCTAGTGCAG”, the binding signal is 10100 fluorescence intensity (a.u.).

For the sequence “GTCCCTCTTCATTCCTTGACTTCTTCTCGTAAGTTAAGATCGGAGTCACCTAGTGCAG”, the binding signal is 8300 fluorescence intensity (a.u.).

Turning to “ATGGCGTTTGGGTTTGGCTCGGGTTGATCTGGATAAGGGACGGAGTCACCTAGTGCAG”, the binding signal was 9020 fluorescence intensity (a.u.).

Regarding “GTCTATTCCAAATCGGCATTTTGGTACTTTCGGTTTAGGTCGGAGTCACCTAGTGCAG”, the binding signal is 8400 fluorescence intensity (a.u.).

On to “ACAAACACACTATGTTTTTCAGTGCCTTGCTATATACATTCGGAGTCACCTAGTGCAG”, for which the binding signal was 8240 fluorescence intensity (a.u.).

As to “ACGTTTCCATCTTATTTGATACATGTTGCTGCTCCATCTCCGGAGTCACCTAGTGCAG”, the binding signal is 9160 fluorescence intensity (a.u.).

Consider “AGCCACCGTCCTCACGCACGCACCTTCACACACCACCGTCCGGAGTCACCTAGTGCAG”, for which the binding signal was 10200 fluorescence intensity (a.u.).

As for “GCCGTTGTTGTCGTCCTCTTCTCCTCCGACGTCGTCGTCGCGGAGTCACCTAGTGCAG”, the binding signal was 8070 fluorescence intensity (a.u.).

Regarding “TCCCGCTTCCATCTCACATTCAGGTTCATGTTCTCCTCAGCGGAGTCACCTAGTGCAG”, the binding signal was 9130 fluorescence intensity (a.u.).

As to “AAGCCATGCGCTCCCATCGCTTCTTCCTCACAAACTTTCCCGGAGTCACCTAGTGCAG”, the binding signal is 8050 fluorescence intensity (a.u.).

As for “TGAACTCCTAATACTGTCCTACCACTTCTACATGTCTTCTCGGAGTCACCTAGTGCAG”, the binding signal is 11300 fluorescence intensity (a.u.).

In the case of “ATATCTGATGTGACACGGCAAAAATTTTCACCCCTAGATTCGGAGTCACCTAGTGCAG”, the binding signal was 8420 fluorescence intensity (a.u.).

Take “AACAGTCAAATATATGCTAAAAAGTCAACGGTGTAGGAGTCGGAGTCACCTAGTGCAG”: the binding signal was 14700 fluorescence intensity (a.u.).
